{"source": "ChEMBL document CHEMBL1157379", "about": "“Transcriptional response of Candida parapsilosis following exposure to farnesol” (2007)", "format_in_all_cases": "functional", "key": {"Candida parapsilosis [1]": {"test_system": "Candida parapsilosis", "assay": "Decrease in RIM13 gene expression in Candida parapsilosis CLIB214 at 50 uM after 2 hrs by microarray based transcriptional profiling relative to control"}, "Candida parapsilosis [2]": {"test_system": "Candida parapsilosis", "assay": "Decrease in CGD gene ortholog accession number orf19.1723 expression in Candida parapsilosis CLIB214 at 50 uM after 2 hrs by microarray based transcriptional profiling relative to control"}, "Candida parapsilosis [3]": {"test_system": "Candida parapsilosis", "assay": "Decrease in CGD gene ortholog accession number orf19.1476 expression in Candida parapsilosis CLIB214 at 50 uM after 2 hrs by microarray based transcriptional profiling relative to control"}, "Candida parapsilosis [4]": {"test_system": "Candida parapsilosis", "assay": "Decrease in CGD gene ortholog accession number orf19.3951 expression in Candida parapsilosis CLIB214 at 50 uM after 2 hrs by microarray based transcriptional profiling relative to control"}, "Candida parapsilosis [5]": {"test_system": "Candida parapsilosis", "assay": "Increase in CGD gene ortholog accession number orf19.4900 expression in Candida parapsilosis CLIB214 at 50 uM after 2 hrs by microarray based transcriptional profiling relative to control"}, "Candida parapsilosis [6]": {"test_system": "Candida parapsilosis", "assay": "Decrease in CGD gene ortholog accession number orf19.6976 expression in Candida parapsilosis CLIB214 at 50 uM after 2 hrs by microarray based transcriptional profiling relative to control"}, "Candida parapsilosis [7]": {"test_system": "Candida parapsilosis", "assay": "Increase in CGD gene ortholog accession number orf19.6417 expression in Candida parapsilosis CLIB214 at 50 uM after 2 hrs by microarray based transcriptional profiling relative to control"}, "Candida parapsilosis [8]": {"test_system": "Candida parapsilosis", "assay": "Decrease in HGT5 gene expression in Candida parapsilosis CLIB214 at 50 uM after 2 hrs by microarray based transcriptional profiling relative to control"}, "Candida parapsilosis [9]": {"test_system": "Candida parapsilosis", "assay": "Increase in CGD gene ortholog accession number orf19.5710 expression in Candida parapsilosis CLIB214 at 50 uM after 2 hrs by microarray based transcriptional profiling relative to control"}, "Candida parapsilosis [10]": {"test_system": "Candida parapsilosis", "assay": "Decrease in CGD gene ortholog accession number orf19.4376 expression in Candida parapsilosis CLIB214 at 50 uM after 2 hrs by microarray based transcriptional profiling relative to control"}, "Candida parapsilosis [11]": {"test_system": "Candida parapsilosis", "assay": "Decrease in CGD gene ortholog accession number orf19.2101 expression in Candida parapsilosis CLIB214 at 50 uM after 2 hrs by microarray based transcriptional profiling relative to control"}, "Candida parapsilosis [12]": {"test_system": "Candida parapsilosis", "assay": "Decrease in CGD gene ortholog accession number orf19.3235 expression in Candida parapsilosis CLIB214 at 50 uM after 2 hrs by microarray based transcriptional profiling relative to control"}, "Candida parapsilosis [13]": {"test_system": "Candida parapsilosis", "assay": "Decrease in CGD gene ortholog accession number orf19.2761 expression in Candida parapsilosis CLIB214 at 50 uM after 2 hrs by microarray based transcriptional profiling relative to control"}, "Candida parapsilosis [14]": {"test_system": "Candida parapsilosis", "assay": "Decrease in CGD gene ortholog accession number orf19.4595 expression in Candida parapsilosis CLIB214 at 50 uM after 2 hrs by microarray based transcriptional profiling relative to control"}, "Candida parapsilosis [15]": {"test_system": "Candida parapsilosis", "assay": "Decrease in CGD gene ortholog accession number orf19.21 expression in Candida parapsilosis CLIB214 at 50 uM after 2 hrs by microarray based transcriptional profiling relative to control"}, "Candida parapsilosis [16]": {"test_system": "Candida parapsilosis", "assay": "Increase in CGD gene ortholog accession number orf19.5550 expression in Candida parapsilosis CLIB214 at 50 uM after 2 hrs by microarray based transcriptional profiling relative to control"}, "Candida parapsilosis [17]": {"test_system": "Candida parapsilosis", "assay": "Increase in GDB1 gene expression in Candida parapsilosis CLIB214 at 50 uM after 2 hrs by microarray based transcriptional profiling relative to control"}, "Candida parapsilosis [18]": {"test_system": "Candida parapsilosis", "assay": "Increase in CGD gene ortholog accession number orf19.457 expression in Candida parapsilosis CLIB214 at 50 uM after 2 hrs by microarray based transcriptional profiling relative to control"}, "Candida parapsilosis [19]": {"test_system": "Candida parapsilosis", "assay": "Decrease in CGD gene ortholog accession number orf19.2756 expression in Candida parapsilosis CLIB214 at 50 uM after 2 hrs by microarray based transcriptional profiling relative to control"}, "Candida parapsilosis [20]": {"test_system": "Candida parapsilosis", "assay": "Increase in CGD gene ortholog accession number orf19.7568 expression in Candida parapsilosis CLIB214 at 50 uM after 2 hrs by microarray based transcriptional profiling relative to control"}, "Candida parapsilosis [21]": {"test_system": "Candida parapsilosis", "assay": "Decrease in CGD gene ortholog accession number orf19.4960 expression in Candida parapsilosis CLIB214 at 50 uM after 2 hrs by microarray based transcriptional profiling relative to control"}, "Candida parapsilosis [22]": {"test_system": "Candida parapsilosis", "assay": "Decrease in CGD gene ortholog accession number orf19.2737 expression in Candida parapsilosis CLIB214 at 50 uM after 2 hrs by microarray based transcriptional profiling relative to control"}, "Candida parapsilosis [23]": {"test_system": "Candida parapsilosis", "assay": "Increase in CGD gene ortholog accession number orf19.7020 expression in Candida parapsilosis CLIB214 at 50 uM after 2 hrs by microarray based transcriptional profiling relative to control"}, "Candida parapsilosis [24]": {"test_system": "Candida parapsilosis", "assay": "Increase in GenBank accession number NP_943631.1 expression in Candida parapsilosis CLIB214 at 50 uM after 2 hrs by microarray based transcriptional profiling relative to control"}, "Candida parapsilosis [25]": {"test_system": "Candida parapsilosis", "assay": "Increase in CGD gene ortholog accession number orf19.6371 expression in Candida parapsilosis CLIB214 at 50 uM after 2 hrs by microarray based transcriptional profiling relative to control"}, "Candida parapsilosis [26]": {"test_system": "Candida parapsilosis", "assay": "Increase in CGD gene ortholog accession number orf19.1890 expression in Candida parapsilosis CLIB214 at 50 uM after 2 hrs by microarray based transcriptional profiling relative to control"}, "Candida parapsilosis [27]": {"test_system": "Candida parapsilosis", "assay": "Increase in GenBank accession number NP_943638.1 expression in Candida parapsilosis CLIB214 at 50 uM after 2 hrs by microarray based transcriptional profiling relative to control"}, "Candida parapsilosis [28]": {"test_system": "Candida parapsilosis", "assay": "Increase in CSP37 gene expression in Candida parapsilosis CLIB214 at 50 uM after 2 hrs by microarray based transcriptional profiling relative to control"}, "Candida parapsilosis [29]": {"test_system": "Candida parapsilosis", "assay": "Decrease in CGD gene ortholog accession number orf19.5253 expression in Candida parapsilosis CLIB214 at 50 uM after 2 hrs by microarray based transcriptional profiling relative to control"}, "Candida parapsilosis [30]": {"test_system": "Candida parapsilosis", "assay": "Decrease in CGD gene ortholog accession number orf19.1676 expression in Candida parapsilosis CLIB214 at 50 uM after 2 hrs by microarray based transcriptional profiling relative to control"}, "Candida parapsilosis [31]": {"test_system": "Candida parapsilosis", "assay": "Increase in CGD gene ortholog accession number orf19.2439 expression in Candida parapsilosis CLIB214 at 50 uM after 2 hrs by microarray based transcriptional profiling relative to control"}, "Candida parapsilosis [32]": {"test_system": "Candida parapsilosis", "assay": "Increase in CGD gene ortholog accession number orf19.6373 expression in Candida parapsilosis CLIB214 at 50 uM after 2 hrs by microarray based transcriptional profiling relative to control"}, "Candida parapsilosis [33]": {"test_system": "Candida parapsilosis", "assay": "Increase in CGD gene ortholog accession number orf19.7290 expression in Candida parapsilosis CLIB214 at 50 uM after 2 hrs by microarray based transcriptional profiling relative to control"}, "Candida parapsilosis [34]": {"test_system": "Candida parapsilosis", "assay": "Increase in CGD gene ortholog accession number orf19.5910 expression in Candida parapsilosis CLIB214 at 50 uM after 2 hrs by microarray based transcriptional profiling relative to control"}, "Candida parapsilosis [35]": {"test_system": "Candida parapsilosis", "assay": "Decrease in CGD gene ortholog accession number orf19.1634 expression in Candida parapsilosis CLIB214 at 50 uM after 2 hrs by microarray based transcriptional profiling relative to control"}}, "note": "Further values from the same series stand in other lists.", "data": [{"smiles": "CC(C)=CCC/C(C)=C/CC/C(C)=C/CO", "note": "[FARNESOL]", "values": [{"measurement": "fold change (FC)", "setting": "Candida parapsilosis [1]", "result": 1.9}, {"measurement": "fold change (FC)", "setting": "Candida parapsilosis [2]", "result": 1.83}, {"measurement": "fold change (FC)", "setting": "Candida parapsilosis [3]", "result": 1.81}, {"measurement": "fold change (FC)", "setting": "Candida parapsilosis [4]", "result": 1.86}, {"measurement": "fold change (FC)", "setting": "Candida parapsilosis [5]", "result": 1.65}, {"measurement": "fold change (FC)", "setting": "Candida parapsilosis [6]", "result": 1.69}, {"measurement": "fold change (FC)", "setting": "Candida parapsilosis [7]", "result": 1.64}, {"measurement": "fold change (FC)", "setting": "Candida parapsilosis [8]", "result": 1.99}, {"measurement": "fold change (FC)", "setting": "Candida parapsilosis [9]", "result": 1.74}, {"measurement": "fold change (FC)", "setting": "Candida parapsilosis [10]", "result": 1.83}, {"measurement": "fold change (FC)", "setting": "Candida parapsilosis [11]", "result": 1.82}, {"measurement": "fold change (FC)", "setting": "Candida parapsilosis [12]", "result": 1.7}, {"measurement": "fold change (FC)", "setting": "Candida parapsilosis [13]", "result": 1.51}, {"measurement": "fold change (FC)", "setting": "Candida parapsilosis [14]", "result": 1.95}, {"measurement": "fold change (FC)", "setting": "Candida parapsilosis [15]", "result": 1.95}, {"measurement": "fold change (FC)", "setting": "Candida parapsilosis [16]", "result": 2}, {"measurement": "fold change (FC)", "setting": "Candida parapsilosis [17]", "result": 1.58}, {"measurement": "fold change (FC)", "setting": "Candida parapsilosis [18]", "result": 1.5}, {"measurement": "fold change (FC)", "setting": "Candida parapsilosis [19]", "result": 1.9}, {"measurement": "fold change (FC)", "setting": "Candida parapsilosis [20]", "result": 1.64}, {"measurement": "fold change (FC)", "setting": "Candida parapsilosis [21]", "result": 1.64}, {"measurement": "fold change (FC)", "setting": "Candida parapsilosis [22]", "result": 1.55}, {"measurement": "fold change (FC)", "setting": "Candida parapsilosis [23]", "result": 1.59}, {"measurement": "fold change (FC)", "setting": "Candida parapsilosis [24]", "result": 2.3}, {"measurement": "fold change (FC)", "setting": "Candida parapsilosis [25]", "result": 1.56}, {"measurement": "fold change (FC)", "setting": "Candida parapsilosis [26]", "result": 1.71}, {"measurement": "fold change (FC)", "setting": "Candida parapsilosis [27]", "result": 4.5}, {"measurement": "fold change (FC)", "setting": "Candida parapsilosis [28]", "result": 1.98}, {"measurement": "fold change (FC)", "setting": "Candida parapsilosis [29]", "result": 1.59}, {"measurement": "fold change (FC)", "setting": "Candida parapsilosis [30]", "result": 1.98}, {"measurement": "fold change (FC)", "setting": "Candida parapsilosis [31]", "result": 1.76}, {"measurement": "fold change (FC)", "setting": "Candida parapsilosis [32]", "result": 1.79}, {"measurement": "fold change (FC)", "setting": "Candida parapsilosis [33]", "result": 1.54}, {"measurement": "fold change (FC)", "setting": "Candida parapsilosis [34]", "result": 1.69}, {"measurement": "fold change (FC)", "setting": "Candida parapsilosis [35]", "result": 1.78}]}]}
